PubChem BioAssay AID1259405, NCATS | 2018

- Screen: 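Knock-downs that lift recombinant protein yield in hamster ovary cells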 (primary screen)
- Cell system: Chinese hamster CHO-K1 ovary cells with stable secreted eGFP expression
- Reagents: single siRNA against mouse genes, 0.8 pmol siRNA per well (2 µl of 400 nM stock)
- Time to read-out: 3 days
- Measurement: 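Per-well intracellular GFP measured by laser scanning cytometry, plus viability from ATP luminescence, each relative to plate median of non-targeting control wells, in %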
- Reading the numbers: GFP, % of control: higher = more GFP per well, higher productivity; viability (ATP), % of control: higher = more viable cells (more ATP)
- Active means: 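a knock-down is called active if GFP reaches 120% or more of non-targeting control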
In all, the deposit lists about 50,000 reagents; below is a part drawn at random. About 4,000 of all reagents (8%) were called active. 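Mouse siRNA library applied to hamster cells; one well for each siRNA.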 Reagent sequences are not shown.

| Gene | PubChem SID | GFP, % of control | viability (ATP), % of control | activity call |
| --- | --- | --- | --- | --- |
| Dennd1c (DENN domain containing 1C) | SID363542546 | 75.9 | 60 | inactive |
| Dennd1c (DENN domain containing 1C) | SID363552037 | 79.2 | 59.6 | inactive |
| Dennd1c (DENN domain containing 1C) | SID363559642 | 70.9 | 81.1 | inactive |
| Dusp13b (dual specificity phosphatase 13B) | SID363539638 | 87 | 71.6 | inactive |
| Dusp13b (dual specificity phosphatase 13B) | SID363560939 | 93.2 | 84.7 | inactive |
| Dusp13b (dual specificity phosphatase 13B) | SID363565029 | 93.3 | 57.2 | inactive |
| Otud7b (OTU domain containing 7B) | SID363573165 | 83.3 | 78.2 | inactive |
| Otud7b (OTU domain containing 7B) | SID363577741 | 82.3 | 60.5 | inactive |
| Otud7b (OTU domain containing 7B) | SID363581261 | 34.1 | 53.8 | inactive |
| Or8d6 (olfactory receptor family 8 subfamily D member 6) | SID363554513 | 97.1 | 42.3 | inactive |
| Or8d6 (olfactory receptor family 8 subfamily D member 6) | SID363567960 | 93.7 | 53.2 | inactive |
| Or8d6 (olfactory receptor family 8 subfamily D member 6) | SID363586019 | 53.3 | 55.5 | inactive |
| Cyp2c38 (cytochrome P450, family 2, subfamily c, polypeptide 38) | SID363547694 | 94.8 | 92.6 | inactive |
| Cyp2c38 (cytochrome P450, family 2, subfamily c, polypeptide 38) | SID363558463 | 116 | 87.9 | inactive |
| Cyp2c38 (cytochrome P450, family 2, subfamily c, polypeptide 38) | SID363560221 | 77.8 | 68.5 | inactive |
| Hspa5 (heat shock protein family A (Hsp70) member 5) | SID363572640 | 55.5 | 44.6 | inactive |
| Hspa5 (heat shock protein family A (Hsp70) member 5) | SID363577920 | 55.1 | 38.1 | inactive |
| Hspa5 (heat shock protein family A (Hsp70) member 5) | SID363582144 | 92.9 | 112 | inactive |
| Cbr1 (carbonyl reductase 1) | SID363575225 | 89.2 | 85.9 | inactive |
| Cbr1 (carbonyl reductase 1) | SID363580857 | 93.7 | 89.1 | inactive |
| Cbr1 (carbonyl reductase 1) | SID363582969 | 58.7 | 65.8 | inactive |
| Sprn (shadow of prion protein) | SID363556432 | 135 | 64.4 | active |
| Sprn (shadow of prion protein) | SID363586882 | 76.2 | 94.3 | inactive |
| Sprn (shadow of prion protein) | SID363588990 | 209 | 131 | active |
| Slc5a5 | SID363574699 | 76.4 | 128 | inactive |
| Slc5a5 | SID363575755 | 45.3 | 41.8 | inactive |
| Slc5a5 | SID363580331 | 117 | 93.5 | inactive |
| 1810009J06Rik (RIKEN cDNA 1810009J06 gene) | SID363547477 | 38.9 | 38.7 | inactive |
| 1810009J06Rik (RIKEN cDNA 1810009J06 gene) | SID363558246 | 30.8 | 52 | inactive |
| 1810009J06Rik (RIKEN cDNA 1810009J06 gene) | SID363560004 | 64.8 | 93.4 | inactive |
| Cacna1f (calcium channel, voltage-dependent, alpha 1F subunit) | SID363574426 | 59 | 78.4 | inactive |
| Cacna1f (calcium channel, voltage-dependent, alpha 1F subunit) | SID363575482 | 70.9 | 52.8 | inactive |
| Cacna1f (calcium channel, voltage-dependent, alpha 1F subunit) | SID363580058 | 91.9 | 69.6 | inactive |
| BC051665 (cDNA sequence BC051665) | SID363547264 | 70 | 79.6 | inactive |
| BC051665 (cDNA sequence BC051665) | SID363558033 | 44.7 | 50.5 | inactive |
| BC051665 (cDNA sequence BC051665) | SID363559791 | 47.9 | 74.8 | inactive |
| Cirbp (cold inducible RNA binding protein) | SID363569471 | 53.9 | 53.2 | inactive |
| Cirbp (cold inducible RNA binding protein) | SID363577215 | 70.5 | 61.5 | inactive |
| Cirbp (cold inducible RNA binding protein) | SID363578623 | 185 | 132 | active |
| H1f2 (H1.2 linker histone, cluster member) | SID363546014 | 88.6 | 107 | inactive |
| H1f2 (H1.2 linker histone, cluster member) | SID363549527 | 89.9 | 122 | inactive |
| H1f2 (H1.2 linker histone, cluster member) | SID363563333 | 64.1 | 77.7 | inactive |
| Mindy4 (MINDY lysine 48 deubiquitinase 4) | SID363550229 | 89.1 | 97.3 | inactive |
| Mindy4 (MINDY lysine 48 deubiquitinase 4) | SID363564738 | 76.5 | 99.6 | inactive |
| Mindy4 (MINDY lysine 48 deubiquitinase 4) | SID363588283 | 79.9 | 108 | inactive |
| Plek (pleckstrin) | SID363554699 | 73.5 | 68.5 | inactive |
| Plek (pleckstrin) | SID363568146 | 52 | 80.2 | inactive |
| Plek (pleckstrin) | SID363586205 | 80.7 | 85.6 | inactive |
| Endov (endonuclease V) | SID363542944 | 136 | 65.3 | active |
| Endov (endonuclease V) | SID363546461 | 55 | 30.8 | inactive |
| Endov (endonuclease V) | SID363548217 | 107 | 113 | inactive |
| Nalcn (sodium leak channel, non-selective) | SID363547245 | 82.6 | 79.4 | inactive |
| Nalcn (sodium leak channel, non-selective) | SID363547247 | 37.1 | 57.3 | inactive |
| Nalcn (sodium leak channel, non-selective) | SID363558014 | 69.4 | 59.6 | inactive |
| Nalcn (sodium leak channel, non-selective) | SID363558016 | 84 | 56 | inactive |
| Nalcn (sodium leak channel, non-selective) | SID363559772 | 51.7 | 76.1 | inactive |
| Nalcn (sodium leak channel, non-selective) | SID363559774 | 65.2 | 69.8 | inactive |
| Fmo9 (flavin containing monooxygenase 9) | SID363547599 | 38.4 | 23 | inactive |
| Fmo9 (flavin containing monooxygenase 9) | SID363558368 | 61.7 | 48.3 | inactive |
| Fmo9 (flavin containing monooxygenase 9) | SID363560126 | 102 | 91.9 | inactive |
| Stra6l (STRA6-like) | SID363540560 | 68.9 | 86.2 | inactive |
| Stra6l (STRA6-like) | SID363543011 | 82 | 92.8 | inactive |
| Stra6l (STRA6-like) | SID363552504 | 82.7 | 37.3 | inactive |
| Gabrb3 | SID363574314 | 89.5 | 86.4 | inactive |
| Gabrb3 | SID363575370 | 73.3 | 77.7 | inactive |
| Gabrb3 | SID363579946 | 85 | 76 | inactive |
| Or10c1 (olfactory receptor family 10 subfamily C member 1) | SID363545076 | 108 | 98.2 | inactive |
| Or10c1 (olfactory receptor family 10 subfamily C member 1) | SID363551404 | 55.6 | 59.3 | inactive |
| Or10c1 (olfactory receptor family 10 subfamily C member 1) | SID363557953 | 74.2 | 101 | inactive |
| Mcfd2 (multiple coagulation factor deficiency 2) | SID363574783 | 127 | 86.6 | active |
| Mcfd2 (multiple coagulation factor deficiency 2) | SID363575839 | 94.2 | 66.3 | inactive |
| Mcfd2 (multiple coagulation factor deficiency 2) | SID363580415 | 55.5 | 63.1 | inactive |
| Nkx1-2 (NK1 homeobox 2) | SID363545917 | 32.1 | 36.1 | inactive |
| Nkx1-2 (NK1 homeobox 2) | SID363549430 | 64.9 | 78.2 | inactive |
| Nkx1-2 (NK1 homeobox 2) | SID363563236 | 54 | 36.1 | inactive |
| Vamp7 (vesicle-associated membrane protein 7) | SID363582462 | 83.4 | 107 | inactive |
| Vamp7 (vesicle-associated membrane protein 7) | SID363584222 | 70.8 | 72.3 | inactive |
| Ube2r2 (ubiquitin-conjugating enzyme E2R 2) | SID363572807 | 63.7 | 69 | inactive |
| Ube2r2 (ubiquitin-conjugating enzyme E2R 2) | SID363578087 | 87.7 | 91 | inactive |
| Ube2r2 (ubiquitin-conjugating enzyme E2R 2) | SID363582311 | 87.4 | 97.7 | inactive |
| Os9 (amplified in osteosarcoma) | SID363542312 | 58.6 | 121 | inactive |
| Os9 (amplified in osteosarcoma) | SID363551803 | 79.5 | 97.8 | inactive |
| Os9 (amplified in osteosarcoma) | SID363559408 | 102 | 87.9 | inactive |
| Platr25 (pluripotency associated transcript 25) | SID363541096 | 35.4 | 49.2 | inactive |
| Platr25 (pluripotency associated transcript 25) | SID363555723 | 75.1 | 88.9 | inactive |
| Platr25 (pluripotency associated transcript 25) | SID363566012 | 95.5 | 60.6 | inactive |

Already shown: entries from further up.
| Gene | PubChem SID | GFP, % of control | viability (ATP), % of control | activity call |
| --- | --- | --- | --- | --- |
| Vamp7 (vesicle-associated membrane protein 7) | SID363582462 | 83.4 | 107 | inactive |
| Vamp7 (vesicle-associated membrane protein 7) | SID363584222 | 70.8 | 72.3 | inactive |
| Ube2r2 (ubiquitin-conjugating enzyme E2R 2) | SID363572807 | 63.7 | 69 | inactive |
| Ube2r2 (ubiquitin-conjugating enzyme E2R 2) | SID363578087 | 87.7 | 91 | inactive |
| Ube2r2 (ubiquitin-conjugating enzyme E2R 2) | SID363582311 | 87.4 | 97.7 | inactive |
| Os9 (amplified in osteosarcoma) | SID363542312 | 58.6 | 121 | inactive |
| Os9 (amplified in osteosarcoma) | SID363551803 | 79.5 | 97.8 | inactive |
